Assay results reported in paper PMC7765622, “The Cardioprotective PKA-Mediated Hsp20 Phosphorylation Modulates Protein Associations Regulating Cytoskeletal Dynamics” (International Journal of Molecular Sciences, 2020).
Results are given in words; binding and its absence hold for the method and conditions named. For part of these data: In cells and extracts the contact can be indirect. Some binding calls cover weakened binding; strength is not graded here. Tags and fused reporters may be left off the sequences shown.

T1: MBP-14-3-3 (amino acids 1-247), full length 14-3-3 gamma (human) (UniProt P61981)
T1 sequence: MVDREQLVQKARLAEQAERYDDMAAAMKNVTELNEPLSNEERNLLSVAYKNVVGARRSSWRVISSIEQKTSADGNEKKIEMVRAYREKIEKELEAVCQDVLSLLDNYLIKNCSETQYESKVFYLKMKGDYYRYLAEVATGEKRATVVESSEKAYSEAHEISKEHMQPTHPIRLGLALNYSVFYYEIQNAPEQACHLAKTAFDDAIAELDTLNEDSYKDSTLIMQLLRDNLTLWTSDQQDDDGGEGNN

T2: GST-CFL2 (amino acids 1-55) (UniProt Q9Y281)
T2 sequence: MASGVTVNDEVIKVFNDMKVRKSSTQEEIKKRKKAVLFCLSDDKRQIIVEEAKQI


Assays:
[1] = molecular target: T1, MBP-14-3-3 (amino acids 1-247), full length 14-3-3 gamma (human); experiment: pull-down; MBP-14-3-3 bound to amylose resin mixed with 0.5 mg mouse cardiac homogenate (10 mM NaPO4 pH 7.2, 2 mM EDTA, 120 mM NaCl, 1% NP-40), 4 °C, 16 h; Western blot; only the target purified
[2] = molecular target: T1, MBP-14-3-3 (amino acids 1-247), full length 14-3-3 gamma (human); experiment: pull-down; MBP-14-3-3 bound to amylose resin incubated with lysates of HEK 293 cells transfected with myc-CFL2 (50 mM Tris-HCl pH 8.0, 150 mM NaCl, 1% NP-40), in the presence of phosphorylated or non-phosphorylated eluted GST-Hsp20 (WT, S16A, S16D or P20L); blot with myc antibody; only the target purified
[3] = molecular target: GST-CFL2 (amino acids 1-166), non-phosphorylated (UniProt Q9Y281); experiment: far-Western, overlay or dot blot; purified GST fusion proteins separated by SDS-PAGE and transferred to nitrocellulose; membranes incubated with MBP-14-3-3 fusion protein (or MBP as control); detection with anti-MBP; both purified
[4] = molecular target: T2, GST-CFL2 (amino acids 1-55); experiment: as above

| Molecule | binding [1] | binding [3] | further results |
| --- | --- | --- | --- |
| cofilin-2 (CFL2), endogenous in mouse cardiac muscle (from UniProt P45591 1-166) | binds | – | – |
| myc-CFL2, full length (from UniProt Q9Y281 1-166) | – | – | binding [2]: binds |
| Hsp20 (small heat shock protein 20), endogenous in mouse cardiac muscle (protein, UniProt Q5EBG6 1-162) MEIPVPVQPSWLRRASAPLPGFSAPGRLFDQRFGEGLLEAELASLCPAAIAPYYLRAPSVALPTAQVSTDSGYFSVLLDVKHFLPEEISVKVVDDHVEVHARHEERPDEHGFIAREFHRRYRLPPGVDPAAVTSALSPEGVLSIQATPASAQAQLPSPPAAK | binds | – | – |
| MBP-14-3-3 (amino acids 1-120) (protein) MVDREQLVQKARLAEQAERYDDMAAAMKNVTELNEPLSNEERNLLSVAYKNVVGARRSSWRVISSIEQKTSADGNEKKIEMVRAYREKIEKELEAVCQDVLSLLDNYLIKNCSETQYESK | – | binds | – |
| MBP-14-3-3 (amino acids 1-247), full length 14-3-3 gamma (protein) MVDREQLVQKARLAEQAERYDDMAAAMKNVTELNEPLSNEERNLLSVAYKNVVGARRSSWRVISSIEQKTSADGNEKKIEMVRAYREKIEKELEAVCQDVLSLLDNYLIKNCSETQYESKVFYLKMKGDYYRYLAEVATGEKRATVVESSEKAYSEAHEISKEHMQPTHPIRLGLALNYSVFYYEIQNAPEQACHLAKTAFDDAIAELDTLNEDSYKDSTLIMQLLRDNLTLWTSDQQDDDGGEGNN | – | binds | binding [4]: binds |
